No constants are given. Whether binding was seen depends on the method and setting. Some entries that bind do so weakly or less than the wild type.
Biological target: CXCR4 on transfected mouse myeloma NSO cells (UniProt P61073)
Assay: adhesion of receptor-expressing NSO cells to immobilized stalkokine; one 'yes' printed for two ligands

Chains of the proteins cited; added tags and fusions are not shown. Residues count along the entry.
UniProt P61073: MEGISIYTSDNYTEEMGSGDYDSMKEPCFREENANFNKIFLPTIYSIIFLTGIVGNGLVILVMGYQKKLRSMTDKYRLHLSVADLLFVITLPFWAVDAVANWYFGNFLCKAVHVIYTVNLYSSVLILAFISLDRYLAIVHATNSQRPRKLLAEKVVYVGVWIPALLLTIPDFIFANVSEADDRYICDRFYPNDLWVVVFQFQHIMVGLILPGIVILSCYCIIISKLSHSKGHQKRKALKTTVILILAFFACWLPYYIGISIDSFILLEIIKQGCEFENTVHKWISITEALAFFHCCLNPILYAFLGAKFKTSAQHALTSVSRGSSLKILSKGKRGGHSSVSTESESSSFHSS
UniProt P78423, residues 25-336: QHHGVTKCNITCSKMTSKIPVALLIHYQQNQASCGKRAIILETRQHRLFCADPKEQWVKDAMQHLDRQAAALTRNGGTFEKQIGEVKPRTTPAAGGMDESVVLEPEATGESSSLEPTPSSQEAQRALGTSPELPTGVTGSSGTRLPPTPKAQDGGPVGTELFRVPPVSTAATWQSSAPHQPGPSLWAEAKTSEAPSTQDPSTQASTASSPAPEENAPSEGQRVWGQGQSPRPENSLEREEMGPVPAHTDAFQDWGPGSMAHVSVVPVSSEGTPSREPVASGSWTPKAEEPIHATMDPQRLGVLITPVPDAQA

- binding: binds
Substance: FK (fractalkine), stalkokine form (from UniProt P78423 25-336) (ligand)

Source: patent US6699677
